How the values were obtained:
[1] = Sensory evaluation of tablets, forced triangle test, co-crystal vs. dry-mix
[2] = Sensory profiling of tablets by trained panelists, co-crystal vs. dry mix reference; details: tablets with 25 mg NaCl, 95% confidence

Structure (SMILES) | panelists, out of the correct answers, who found the co-crystal saltier ([1]; method 1) | panelists, out of the correct answers, who said it would dissolve faster ([1]; method 1) | correct answers in forced triangle test ([1]; method 1 (crunched, kept in mouth to dissolve slowly), out of 31 answers) | panelists, out of the correct answers, who found the co-crystal saltier ([1]; method 2) | panelists, out of the correct answers, who said it would dissolve faster ([1]; method 2) | correct answers in forced triangle test ([1]; method 2 (crunched and chewed constantly), out of 31 answers) | perceived melting vs. dry mix tablet [2] | perceived saltiness vs. dry mix tablet (upfront, overall, saltiness persistence, overall persistence) [2] | correct answers in forced triangle test ([1]; method 2 (crunched and chewed constantly), out of 28 answers)
O.OC[C@H]1O[C@H](O)[C@H](O)[C@@H](O)[C@@H]1O.OC[C@H]1O[C@H](O)[C@H](O)[C@@H](O)[C@@H]1O.[Cl-].[Na+] [(Glucose)2•NaCl•H2O co-crystal, (α-D-Glucose)2⋅NaCl⋅H2O] | seven | four | 22 | six | four | 17 | significantly faster | significantly saltier | –
O=C[C@H](O)[C@H](O)[C@H](O)CO.[Cl-].[Na+] [ribose⋅NaCl co-crystal, D-(−)-Ribose⋅NaCl] | – | – | – | six | – | – | – | significantly saltier | 19
